# No constants are given. Whether binding was seen depends on the method and setting. Some entries that bind do so weakly or less than the wild type.
# Sequences of proteins named here, by UniProt entry; tags and fusion partners are left off. Residues count along the entry.
# UniProt P05231, residues 30-212: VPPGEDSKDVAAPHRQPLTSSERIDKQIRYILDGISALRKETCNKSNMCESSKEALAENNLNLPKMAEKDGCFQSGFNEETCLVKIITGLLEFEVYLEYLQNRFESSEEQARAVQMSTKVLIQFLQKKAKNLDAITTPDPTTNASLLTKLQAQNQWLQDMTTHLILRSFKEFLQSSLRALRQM
# Target: recombinant human IL-6 (human) (UniProt P05231)
# Experiment: SPR, purified antibody captured on Protein A, 37 C
row,binding,Binder
1,binds,"anti-IL-6 antibody, heavy chain S35H G66D L100S, light chain M32L/M50D/N52S/M88Q (antibody, V domains shown) VH: EVQLVESGGGLVQPGGSLRLSCAASGFTFSPFAMHWVRQAPGKGLEWVAKISPGGSWTYYSDTVTDRFTFSLDTSKSTAYLQMNSLRAEDTAVYYCARQSWGYYALDIWGQGTLVTVSS VL: DIQLTQSPSSLSASVGDRVTITCSASISVSYLYWYQQKPGKAPKLLIYDDSSLASGVPSRFSGSGSGTDFTLTISSLQPEDFATYYCQQWSGYPYTFGQGTKVEIK"
2,binds,"anti-IL-6 antibody, heavy chain S35H G66D L100Q, light chain M32L/M50D/N52S/M88Q (antibody, V domains shown) VH: EVQLVESGGGLVQPGGSLRLSCAASGFTFSPFAMHWVRQAPGKGLEWVAKISPGGSWTYYSDTVTDRFTFSLDTSKSTAYLQMNSLRAEDTAVYYCARQQWGYYALDIWGQGTLVTVSS VL: DIQLTQSPSSLSASVGDRVTITCSASISVSYLYWYQQKPGKAPKLLIYDDSSLASGVPSRFSGSGSGTDFTLTISSLQPEDFATYYCQQWSGYPYTFGQGTKVEIK"
3,binds,"anti-IL-6 antibody, heavy chain S35H G66D L100T, light chain M32L/M50D/N52S/M88Q (antibody, V domains shown) VH: EVQLVESGGGLVQPGGSLRLSCAASGFTFSPFAMHWVRQAPGKGLEWVAKISPGGSWTYYSDTVTDRFTFSLDTSKSTAYLQMNSLRAEDTAVYYCARQTWGYYALDIWGQGTLVTVSS VL: DIQLTQSPSSLSASVGDRVTITCSASISVSYLYWYQQKPGKAPKLLIYDDSSLASGVPSRFSGSGSGTDFTLTISSLQPEDFATYYCQQWSGYPYTFGQGTKVEIK"

# More lines, now with the values behind:
row,Binder,binding
1,"anti-IL-6 antibody, heavy chain S35H G66D L100G, light chain M32L/M50D/N52S/M88Q (antibody, V domains shown) VH: EVQLVESGGGLVQPGGSLRLSCAASGFTFSPFAMHWVRQAPGKGLEWVAKISPGGSWTYYSDTVTDRFTFSLDTSKSTAYLQMNSLRAEDTAVYYCARQGWGYYALDIWGQGTLVTVSS VL: DIQLTQSPSSLSASVGDRVTITCSASISVSYLYWYQQKPGKAPKLLIYDDSSLASGVPSRFSGSGSGTDFTLTISSLQPEDFATYYCQQWSGYPYTFGQGTKVEIK",binds
2,"anti-IL-6 antibody, heavy chain S35H G66D L100K, light chain M32L/M50D/N52S/M88Q (antibody, V domains shown) VH: EVQLVESGGGLVQPGGSLRLSCAASGFTFSPFAMHWVRQAPGKGLEWVAKISPGGSWTYYSDTVTDRFTFSLDTSKSTAYLQMNSLRAEDTAVYYCARQKWGYYALDIWGQGTLVTVSS VL: DIQLTQSPSSLSASVGDRVTITCSASISVSYLYWYQQKPGKAPKLLIYDDSSLASGVPSRFSGSGSGTDFTLTISSLQPEDFATYYCQQWSGYPYTFGQGTKVEIK",binds

# Reference: US20240209076A1
